Laboratory results taken from article PMC12530846, “Development of Novel Anticancer Pyrazolopyrimidinones Targeting Glioblastoma” (Chemmedchem, 2025).

Experiments:
Type in all cases: cell-based, human
[1] = system: U‐251 MG and HEK293 cells; assay: Statistical comparison of dose–response in U‐251 MG versus HEK293 (selectivity, HIT criteria); details: 95% CI of U‐251 MG and HEK293 IC50 not overlapping
U‐251 MG cells = assay: MTT cell viability assay, U‐251 MG glioblastoma cells, 5 days treatment; details: MTT dose–response curve
Protocol: (§1) Dose–response curves for each of the pyrazolo[1,5‐α]pyrimidinones were performed to determine the cytotoxic effect of the compounds on a cancerous, U‐251 MG cell line and a noncancerous, HEK293 cell line. The synthesized pyrazolopyrimidinones were dissolved in DMSO (Merck) to obtain a stock solution which was stored at −20 °C. […] U‐251 MG and HEK293 cells were seeded at a density of 2 x 10^3 cells per well (100 μL) in a 96‐well plate (Sarstedt) and incubated for 24 h prior to each treatment to allow for cell adhesion. The stock solution was diluted in media to working concentrations of 100, 75, 50, 25, 10, 5, and 0.1 μM. Media on the seeded cells was then replaced with the working concentrations of the compound or the controls in a 96‐well plate (100 μL). The treated plate was incubated at 37 °C in the humidified incubator for 5 days. Cell viability was assessed after 5 days using the MTT assay. Dose–response curves were then plotted relative to the positive control whereby cells were treated 20% DMSO and a negative control whereby cells were maintained in fresh DMEM.
(§2) To determine the extent of the cytotoxic effect of the pyrazolopyrimidinone on each cell line, the cell viability at each working concentration was determined via the MTT assay (Merck). The working solution of MTT used was 5 mg MTT per 1 ml of PBS diluted in 9 ml of media. After 5 days of incubation, the treatment was removed from each of the wells and replaced with 100 μL of fresh MTT solution. The plate was then incubated for 3 h at 37 °C in a humidified incubator to allow the reduction of the yellow tetrazolium salt to purple formazan crystals. After the incubation, the MTT solution was removed from the wells and replaced with 100 μL of DMSO for 15 min to dissolve the formazan crystals. The absorbance was read at 570 nm using a spectrophotometric microplate reader (Thermo Fisher Scientific).
(§3) Each of the experiments was performed at least three independent times, with a minimum of six technical replicates per experiment. Statistical analysis was carried out using GraphPad Prism version 8.0.0 (GraphPad Softwares, Inc.). Curve fitting and the IC50 values were obtained through the dose–response curves using nonlinear regression. To determine if the dose–response curves were statistically distinct and not overlapping, extra sum‐of‐squares F‐test was used, and a p‐value was obtained. The effect of compound treatment on both cell lines was statistically compared via two‐way ANOVA with Tukey's post‐test. The CytExpert (Beckman Coulter) software was used for flow cytometry analysis. Graphs represent the % dead cells whereby the total number of dead cells was divided by the total cell population. The statistical significance of the flow cytometry results was determined via one‐way analysis of variance (ANOVA) with Dunnett's T3 multiple comparison post‐test. Data is presented as the mean ± standard error of mean (SEM). Summary of results from statistical analysis reports p‐values as follows: ≥0.05 (ns), 0.01–0.05 (*), 0.001–0.01 (**), […], and <0.0001(****).

HEK293 cells = assay: MTT cell viability assay, noncancerous HEK293 cells, 5 days treatment; details: MTT dose–response curve
Protocol: as §1, §2, §3

Compound | Difference in IC50 ranges‐Yes/No [1] | U‐251 MG Hillslope (U‐251 MG cells) | HEK293 Hillslope (HEK293 cells)
Cc1cc(=O)n2nc(C(C)C)cc2[nH]1 [Compound 1] | No | −0.5490 | −0.4501
CC(C)c1cc2[nH]c(-c3ccccc3)cc(=O)n2n1 [Compound 2] | Yes | −1.273 | −1.375
Cc1cc(C)cc(-c2cc(=O)n3nc(C(C)C)cc3[nH]2)c1 [Compound 3] | No | −0.5025 | −1.114
CC(C)c1cc2[nH]c(-c3cc(C(F)(F)F)cc(C(F)(F)F)c3)cc(=O)n2n1 [Compound 4] | Yes | −1.384 | −2.838
O=c1cc(-c2cc(C(F)(F)F)cc(C(F)(F)F)c2)[nH]c2cc(-c3ccccc3)nn12 [Compound 5] | Yes | −0.2984 | −1.491
O=c1cc(-c2cc(C(F)(F)F)cc(C(F)(F)F)c2)[nH]c2cc(-c3ccc(F)cc3)nn12 [Compound 6] | Yes | −5.948 | −7.075
O=c1cc(-c2cc(C(F)(F)F)cc(C(F)(F)F)c2)[nH]c2cc(-c3ccc(Br)cc3)nn12 [Compound 7] |  | −3.243 | −10.05
O=c1cc(-c2cc(C(F)(F)F)cc(C(F)(F)F)c2)[nH]c2cc(-c3ccc(Cl)cc3)nn12 [Compound 8] | Yes | −1.561 | −3.976
O=c1cc(-c2cc(C(F)(F)F)cc(C(F)(F)F)c2)[nH]c2cc(-c3ccc(C(F)(F)F)cc3)nn12 [Compound 9] | Yes | −3.665 | −10.95
O=c1cc(-c2cc(C(F)(F)F)cc(C(F)(F)F)c2)[nH]c2cc(-c3ccc([N+](=O)[O-])cc3)nn12 [Compound 10] |  | −3.232 | −4.962
COc1ccc(-c2cc3[nH]c(-c4cc(C(F)(F)F)cc(C(F)(F)F)c4)cc(=O)n3n2)cc1 [Compound 11] | No | −0.9642 | −4.056
O=c1cc(-c2cc(C(F)(F)F)cc(C(F)(F)F)c2)[nH]c2cc(-c3cccc(Cl)c3)nn12 [Compound 12] | No | −0.8934 | −4.056
Cc1cc(=O)n2nc(-c3ccccc3)cc2[nH]1 [Compound 14] |  | −1.263 | 
O=c1cc(-c2ccccc2)[nH]c2cc(-c3ccccc3)nn12 [Compound 15] |  | −1.614 | −5.573
CC(C)(C)c1cc2[nH]c(-c3ccccc3)cc(=O)n2n1 [Compound 17] |  | −5.735 | 
CC(C)c1cc2[nH]c(C(C)C)cc(=O)n2n1 [Compound 18] |  | −2.055 | −0.5581
CCc1cc(=O)n2nc(C(C)C)cc2[nH]1 [Compound 19] |  | −1.995 | 
O=c1cc(-c2cc(C(F)(F)F)cc(C(F)(F)F)c2)[nH]c2cc(-c3cccc(C(F)(F)F)c3)nn12 [Compound 20] |  | −4.045 | 
O=c1cc(-c2cc(C(F)(F)F)cc(C(F)(F)F)c2)[nH]c2cc(-c3cccc(Br)c3)nn12 [Compound 21, 5‐(3,5‐Bis(trifluoromethyl)phenyl)‐2‐(3‐bromophenyl)pyrazolo[1,5‐α]pyrimidin‐7(4¬H)‐one] | Yes | −0.3128 | −1.907
O=c1cc(-c2cc(C(F)(F)F)cc(C(F)(F)F)c2)[nH]c2cc(-c3ccccc3Br)nn12 [Compound 22] | Yes | −0.2934 | −3.518
O=c1cc(-c2cc(C(F)(F)F)cc(C(F)(F)F)c2)[nH]c2cc(-c3cccc([N+](=O)[O-])c3)nn12 [Compound 23] | Yes | −1.177 | −6.753
